Changes are numbered by the printed parent chain. Numbers in names are those of the source. Results are given in words; binding and its absence hold for the method and conditions named. For some assays here: In cells and extracts the contact can be indirect. Some entries that bind do so weakly or less than the wild type.
T1: Pfu 4C11 split polymerase fragment II (468-775 Q484R/V604L/A662V-Ss07d7m) (Pyrococcus furiosus) (UniProt P61875)
T1 sequence: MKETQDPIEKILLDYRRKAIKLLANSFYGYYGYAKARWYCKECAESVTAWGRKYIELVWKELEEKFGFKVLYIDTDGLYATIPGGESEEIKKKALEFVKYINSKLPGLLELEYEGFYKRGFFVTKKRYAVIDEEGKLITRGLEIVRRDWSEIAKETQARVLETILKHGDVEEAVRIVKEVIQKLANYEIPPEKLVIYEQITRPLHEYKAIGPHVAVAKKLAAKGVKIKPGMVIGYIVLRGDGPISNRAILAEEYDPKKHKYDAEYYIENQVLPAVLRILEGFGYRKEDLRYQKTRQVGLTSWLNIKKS

T2: 4C11 split polymerase C-terminal fragment, separately expressed: fragment II (Pfu 468-775 Q484R, V604L/A662V) (Pyrococcus furiosus) (UniProt P61875)
T2 sequence: T1 sequence

B1: Pfu 4C11 split polymerase fragment I (1-467 V93R/A318T) (enzyme)
chain: MILDVDYITEEGKPVIRLFKKENGKFKIEHDRTFRPYIYALLRDDSKIEEVKKITGERHGKIVRIVDVEKVEKKFLGKPITVWKLYLEHPQDRPTIREKVREHPAVVDIFEYDIPFAKRYLIDKGLIPMEGEEELKILAFDIETLYHEGEEFGKGPIIMISYADENEAKVITWKNIDLPYVEVVSSEREMIKRFLRIIREKDPDIIVTYNGDSFDFPYLAKRAEKLGIKLTIGRDGSEPKMQRIGDMTAVEVKGRIHFDLYHVITRTINLPTYTLEAVYEAIFGKPKEKVYADEIAKAWESGENLERVAKYSMEDAKTTYELGKEFLPMEIQLSRLVGQPLWDVSRSSTGNLVEWFLLRKAYERNEVAPNKPSEEEYQRRLRESYTGGFVKEPEKGLWENIVYLDFRALYPSIIITHNVSPDTLNLEGCKNYDIAPQVGHKFCKDIPGFIPSLLGHLLEERQKIKTK
B2: 4C11 split polymerase N-terminal fragment, separately expressed: fragment I (Pfu 1-467, D141A, E143A, A318T) (enzyme)
chain: B1 chain with R93V, D141A, E143A

Tests used:
[1] = molecular target: T1, Pfu 4C11 split polymerase fragment II (468-775 Q484R/V604L/A662V-Ss07d7m) (Pyrococcus furiosus); assay: co-purification of the two fragments after coupled translation in E. coli
[2] = molecular target: T2, 4C11 split polymerase C-terminal fragment, separately expressed: fragment II (Pfu 468-775 Q484R, V604L/A662V) (Pyrococcus furiosus); assay: separately expressed fragments mixed about 1:1, refolded by dialysis, then Q-Sepharose and SP-Sepharose chromatography with SDS-PAGE of fractions

Row | Binder | binding [1] | binding [2]
1 | B1 | binds | –
2 | B2 | – | binds
